The values below come from patent publication US20210403546A1.

The target of experiment [1] is TGF-β1 (species not stated for this assay) (Homo sapiens (Human)). The experiment can be described thus: SPR (Biacore T200), Fab over amine-coupled TGF-β1. Background: Surface plasmon resonance follows binding to a sensor surface in real time, without labels.
Experiment [2] has the same target. The experiment can be described thus: ELISA on plate-coated TGFβ1; positive control. On the technique in general: An ELISA detects its analyte on a solid surface through an enzyme-linked reagent.
The target is the same in experiment [3]. The experiment can be described thus: ELISA on immobilized TGFβ1; positive control.

No constants are given. Whether binding was seen depends on the method and setting. Binding can be weak; no strength is given.

B1: 13A1_2B Fab (LCR13A1_VH_GLv1_03_LCR13A1_VK_GLv3, stable Fab) (Fab, V domains shown)
VH: QVQLVQSGSVLAKPGASVKVSCKASGYTFTNYWMHWVRQAPGQGLEWIGTIYPGNSDTNYNQKFKDRAKLTAVTSTSTVYMELSSLRSEDTAVYYCTREDSRSLYYNGWDYFDYWGQGTLVTVSS
VL: DIVMTQSPDSLAVSLGERATINCKSSESVDNYGISFLNWFQQKPGKAPKLLIYAASNQGSGVPDRFSGSGSGTDFTLTISSLQAEDVAVYFCQQSKEVPRTFGGGTKLEIK
On to B1, for which the binding entry in experiment [1] is reported as “binds”.

B2: 13A1_2F Fab (LCR13A1_VK_GLv1_05 + LCR13A1_VH_GLv1_03, stable Fab) (Fab, V domains shown)
VH: B1 VH
VL: DIVMTQSPDSLAVSLGERATISCRASESVDNYGISFLNWFQQKPGQPPKLLIYAASNQGSGVPSRFSGSGSGTDFTLNIHPLEAEDAATYYCQQSKEVPRTFGGGTKVEIK
On to B2, for which the binding result in experiment [1] is listed as “binds”.

B3: LCR13A1_VH_GLv1_03_LCR13A1_VK_GLv1_05 (LCR13A1-2F) IgG4[S228P] (antibody, V domains shown)
VH: B1 VH
VL: DIVMTQSPDSLAVSLGERATISCRASESVDNYGISFLNWFQQKPGQPPKLLIYAASNQGSGVPSRFSGSGSGTDFTLNIHPLEAEDAATYYCQQSKEVPRTFGGGTKVEIKR
As for B3, the binding result in experiment [2] and in experiment [3] was “binds” in each case.
